Assay results: paper PMC4193777 (PLoS ONE, 2014)

System: neutrophils
Assay: Inhibition of FPR2 agonist-induced superoxide by pertussis toxin or kinase inhibitors
Type: cell-based, human
Details: inhibitors 20 nM to 1 µM (1 µM shown), 15 min at 37°C; WKYMVM 50 nM, F2Pal10 500 nM; n = 3
Description: Human peripheral blood neutrophils were isolated from buffy coats from healthy blood donors using dextran sedimentation and Ficoll-Paque gradient centrifugation as described. The remaining erythrocytes were disrupted by hypotonic lysis, the neutrophils were washed twice, resuspended in KRG, and stored on melting ice until use. This isolation procedure permits cells to be purified with minimal granule mobilization.
The NADPH-oxidase activity was determined using isoluminol-enhanced chemiluminescence (CL), [27]. The CL activity was measured in a six-channel Biolumat LB 9505 (Berthold Co., Wildbad, Germany), using disposable 4-ml polypropylene tubes with a 900 µl reaction mixture containing 10^5 cells, isoluminol (2×10^−5 M) and HRP (2 U). The tubes were equilibrated in the Biolumat for 5 min at 37°C, after which the stimulus (100 µl) was added and the light emission was recorded continuously. […]
A. Primary human neutrophils were treated with pertussis toxin (PTX, 500 ng/ml final concentration) and samples were withdrawn at indicated time points. […] Abscissa, time of study (sec); ordinate, fluorescence (arbitrary unit). […]
The effects of these inhibitors were determined using different concentrations ranging from 20 nM to 1 µM.

CN[C@@H]1C[C@H]2O[C@@](C)([C@@H]1OC)n1c3ccccc3c3c4c(c5c6ccccc6n2c5c31)C(=O)NC4 [Staurosporine]
inhibition of F2Pal10- and WKYMVM-induced superoxide by kinase inhibitor: Very similar degrees of inhibition
